Assay results from patent US10512670B2, “Pharmaceutical composition for preventing or treating hair loss comprising chemokine (C-X-C motif) ligand 1 (CXCL1) protein or CXCL1 protein and minoxidil as active ingredient” (SCM LIFESCIENCE CO., LTD., priority 2016, dated 2019).
At least one compound was matched to its structure with a doubt left.

Test system: C3H/HeN mouse
Test: hair generation test in hair-removed mouse, application of minoxidil and CXCL1 protein to back skin
Assay type: in vivo
Details: applied to back skin for 14 days (FIG. 4)
Experimental: In addition, in the case of combining and using the minoxidil and the CXCL1 protein which were commercialized as a hair generation agent, an experiment for verifying whether the hair generation effect may be better was performed. First, for an experiment for hair regeneration, long hair of a 7-week-old C3H/HeN mouse and the like was shortly cut by using a hair cutting machine and thereafter, the hair was completely removed by using a hair removal agent. After the hair-removed mouse was stabilized for one day, a recombinant protein CXCL1 was mixed with 2% minoxidil (Women's Rogaine, Johnson & Johnson Healthcare Products, USA) to be 1 μg/ml and 10 μg/ml, respectively. The mixture of the minoxidil and the CXCL1 protein was applied to the back skin of the hair-removed mouse for 14 days by […] per day. As a control, a PBS-alone applied group and a 2% minoxidil-alone treated group were set. The hair generation in the back of the mouse was tracked and observed for 14 days and newly generated hair was obtained again and the weight was measured, and the result was illustrated in FIGS. 4 and 5.

Nc1cc(N2CCCCC2)nc(N)[n+]1[O-] [minoxidil]
hair generation in the back (photograph): in some mice, there was no hair generation effect
